The values that follow come from PMC12331980.

Protein sequences, listed by entry. Tags and fused reporters are not part of them.
UniProt Q5VTR2: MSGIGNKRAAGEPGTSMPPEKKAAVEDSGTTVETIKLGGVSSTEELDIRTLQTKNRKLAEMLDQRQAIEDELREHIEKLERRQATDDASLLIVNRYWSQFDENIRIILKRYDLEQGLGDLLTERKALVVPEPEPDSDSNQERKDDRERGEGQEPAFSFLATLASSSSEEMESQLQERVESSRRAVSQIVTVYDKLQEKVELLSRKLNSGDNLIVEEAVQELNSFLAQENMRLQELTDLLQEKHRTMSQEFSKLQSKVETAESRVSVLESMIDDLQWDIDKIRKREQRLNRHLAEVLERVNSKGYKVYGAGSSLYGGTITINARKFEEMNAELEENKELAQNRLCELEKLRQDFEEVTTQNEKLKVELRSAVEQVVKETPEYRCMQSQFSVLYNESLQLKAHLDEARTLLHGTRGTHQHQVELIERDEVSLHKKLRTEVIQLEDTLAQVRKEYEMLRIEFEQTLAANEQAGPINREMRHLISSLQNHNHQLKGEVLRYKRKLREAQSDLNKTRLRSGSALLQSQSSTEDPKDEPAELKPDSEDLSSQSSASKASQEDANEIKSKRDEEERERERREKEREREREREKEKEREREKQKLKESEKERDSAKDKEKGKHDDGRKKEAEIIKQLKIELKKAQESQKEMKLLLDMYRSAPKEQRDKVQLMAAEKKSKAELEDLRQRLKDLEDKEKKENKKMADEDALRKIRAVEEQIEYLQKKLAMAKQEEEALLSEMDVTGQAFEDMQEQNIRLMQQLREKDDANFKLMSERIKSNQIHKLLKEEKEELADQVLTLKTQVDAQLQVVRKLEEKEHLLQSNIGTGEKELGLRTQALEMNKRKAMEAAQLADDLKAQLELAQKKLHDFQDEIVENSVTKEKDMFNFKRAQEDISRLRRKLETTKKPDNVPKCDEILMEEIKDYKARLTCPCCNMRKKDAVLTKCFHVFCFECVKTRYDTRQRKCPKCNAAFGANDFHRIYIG
UniProt P27694: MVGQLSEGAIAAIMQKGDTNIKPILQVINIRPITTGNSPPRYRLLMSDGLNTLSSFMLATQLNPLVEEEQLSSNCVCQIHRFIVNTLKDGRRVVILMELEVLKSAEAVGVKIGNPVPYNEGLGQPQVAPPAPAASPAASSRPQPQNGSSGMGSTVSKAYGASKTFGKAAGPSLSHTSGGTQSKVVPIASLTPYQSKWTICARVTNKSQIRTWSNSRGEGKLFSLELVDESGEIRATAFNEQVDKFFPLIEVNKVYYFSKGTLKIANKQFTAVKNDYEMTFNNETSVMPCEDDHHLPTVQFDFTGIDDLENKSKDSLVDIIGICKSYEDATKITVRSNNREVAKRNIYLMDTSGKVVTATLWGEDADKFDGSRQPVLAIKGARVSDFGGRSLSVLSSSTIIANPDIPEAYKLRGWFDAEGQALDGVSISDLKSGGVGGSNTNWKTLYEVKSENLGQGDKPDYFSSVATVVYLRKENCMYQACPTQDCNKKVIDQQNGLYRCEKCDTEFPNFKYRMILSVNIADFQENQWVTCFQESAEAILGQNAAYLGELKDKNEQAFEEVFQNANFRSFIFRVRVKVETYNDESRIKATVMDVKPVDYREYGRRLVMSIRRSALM

The target in this test is RNF20 (human (endogenous in U2OS or HeLa)) (UniProt Q5VTR2). The test can be described thus: co-IP; endogenous RNF20 precipitated with rabbit polyclonal anti-RNF20 antibody and protein G beads from 2 mg lysate (RIPA buffer without SDS, protease and phosphatase inhibitors), overnight at 4 °C; mock or HU-treated cells; western blot. Background: A western blot detects proteins with antibodies after separation by electrophoresis.

Results are given in words; binding and its absence hold for the method and conditions named. Binding seen in cells or lysates may run through a third protein. Some results given as binding are weak or reduced against the parent protein; the word gives no strength.

Consider RPA70 (from UniProt P27694 1-616), for which the binding entry was “binds”.
